PMC4849145

Amino acid sequences for entries named in this document (tags omitted). Residues count along the entry.
UniProt P10415: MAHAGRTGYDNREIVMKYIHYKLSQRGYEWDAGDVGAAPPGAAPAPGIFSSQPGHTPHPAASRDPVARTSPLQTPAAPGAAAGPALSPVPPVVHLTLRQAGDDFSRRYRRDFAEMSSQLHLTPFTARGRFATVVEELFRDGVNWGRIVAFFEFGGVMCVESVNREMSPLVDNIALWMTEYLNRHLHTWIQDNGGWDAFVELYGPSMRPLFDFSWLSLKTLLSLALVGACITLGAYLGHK
UniProt P20674, residues 42-150: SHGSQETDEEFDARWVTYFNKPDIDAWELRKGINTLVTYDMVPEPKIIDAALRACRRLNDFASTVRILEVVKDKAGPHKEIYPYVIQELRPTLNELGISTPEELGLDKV
UniProt P25786: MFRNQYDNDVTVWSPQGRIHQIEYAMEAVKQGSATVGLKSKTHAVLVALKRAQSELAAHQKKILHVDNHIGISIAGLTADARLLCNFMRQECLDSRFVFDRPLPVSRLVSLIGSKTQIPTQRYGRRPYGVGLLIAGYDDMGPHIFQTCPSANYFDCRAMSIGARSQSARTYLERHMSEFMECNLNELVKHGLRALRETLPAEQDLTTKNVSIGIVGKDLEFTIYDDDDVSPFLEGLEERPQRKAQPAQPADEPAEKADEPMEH
UniProt P25787: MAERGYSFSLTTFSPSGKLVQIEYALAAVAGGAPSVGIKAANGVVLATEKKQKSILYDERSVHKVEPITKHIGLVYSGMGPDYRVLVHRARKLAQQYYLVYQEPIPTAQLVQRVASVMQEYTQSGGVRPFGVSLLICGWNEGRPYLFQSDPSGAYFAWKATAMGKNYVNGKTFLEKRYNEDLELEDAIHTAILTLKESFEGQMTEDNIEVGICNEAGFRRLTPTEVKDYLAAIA
UniProt P28066: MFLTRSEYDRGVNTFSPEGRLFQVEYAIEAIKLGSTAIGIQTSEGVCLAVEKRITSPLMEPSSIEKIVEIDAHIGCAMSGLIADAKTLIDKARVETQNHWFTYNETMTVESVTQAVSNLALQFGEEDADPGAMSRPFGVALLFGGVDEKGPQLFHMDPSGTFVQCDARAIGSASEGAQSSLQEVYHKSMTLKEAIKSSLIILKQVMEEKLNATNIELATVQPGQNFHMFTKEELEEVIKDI
UniProt P21796: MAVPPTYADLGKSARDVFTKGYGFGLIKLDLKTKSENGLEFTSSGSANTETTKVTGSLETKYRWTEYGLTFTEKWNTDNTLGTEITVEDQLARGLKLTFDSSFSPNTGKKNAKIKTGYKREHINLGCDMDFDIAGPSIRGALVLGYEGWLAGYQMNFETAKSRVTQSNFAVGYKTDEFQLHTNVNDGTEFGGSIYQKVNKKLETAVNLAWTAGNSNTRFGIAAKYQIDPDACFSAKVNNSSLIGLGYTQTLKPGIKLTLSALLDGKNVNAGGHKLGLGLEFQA

What follows are substances tested against bcl-2 wild-type protein fused to FLAG peptide (H1299 FLAG-bcl-2) (human) (UniProt P10415) (assay: affinity purification with mass spectrometry; H1299 FLAG-bcl-2 cells cross-linked with 1.0% PFA, lysed in 40 mM HEPES pH 7.4, 150 mM NaCl, 0.3% CHAPS; anti-FLAG antibody with Protein A/G agarose overnight at 4 °C; SDS-PAGE, 12 slices, nLC-MS/MS; proteins found with FLAG-empty vector subtracted).

Substance	binding
cytochrome c oxidase subunits Va (COX5A) (from UniProt P20674 42-150)	binds
proteasome subunit alpha type 1 (from UniProt P25786 1-263)	binds
proteasome subunit alpha type 2 (from UniProt P25787 1-234)	binds
proteasome subunit alpha type 5 (from UniProt P28066 1-241)	binds
voltage-dependent anion channel 1 (VDAC1) (from UniProt P21796 1-283)	binds

These are yes or no findings as the source states them, for the method shown. In cells and extracts the contact can be indirect. These calls come from enrichment with a bait or labelling near it, and not all partners need be listed.
